The target in test [1] is insulin. Kind of test: polyreactivity ELISA. In general terms: ELISA stands for enzyme-linked immunosorbent assay.
Test [2] addresses insulin. Kind of test: ELISA, antibody titrated on insulin.
In test [3] the target is keyhole limpet hemocyanin (KLH). Kind of test: polyreactivity ELISA.
Test [4] shares this target. The experiment in a line: ELISA, antibody titrated on KLH.

Where a chain is given by its changes, count along the chain named. These are yes or no findings as the source states them, for the method shown.

B1: ibalizumab (wild type) (antibody, human IgG1, kappa, V domains shown)
VH: QVQLQQSGPEVVKPGASVKMSCKASGYTFTSYVIHWVRQKPGQGLDWIGYINPYNDGTDYDEKFKGKATLTSDTSTSTAYMELSSLRSEDTAVYYCAREKDNYATGAWFAYWGQGTLVTVSS
VL: DIVMTQSPDSLAVSLGERVTMNCKSSQSLLYSTNQKNYLAWYQQKPGQSPKLLIYWASTRESGVPDRFSGSGSGTDFTLTISSVQAEDVAVYYCQQYYSYRTFGGGTKLEIKR
Consider B1, for which the binding entry in the test with insulin [1] is on record as “no binding”; with insulin [2], “no binding (tested: 10 ug/mL)”.

B2: LM52, glycan-modified anti-CD4 IgG1 antibody with an N-linked glycan at light chain position 52 (antibody, V domains shown)
VH: B1 VH
VL: B1 VL with S58N, T59S, R60T
Turning to B2, the binding entry in the test with insulin [1] is on record as “no binding”; in test [3], “no binding”; in test [4] it was “no binding (tested: 10 ug/mL)”; in the test with insulin [2] it was “no binding (tested: 10 ug/mL)”.

(Values after patent US20150166662A1.)
